For 1 substance, binding results are on record in paper PMC6687951.

Protein sequences, listed by entry. Tags and fused reporters are not part of them. Lines headed by an entry give the natural chain unless they say otherwise; changes in a name come on top.
UniProt Q5S007: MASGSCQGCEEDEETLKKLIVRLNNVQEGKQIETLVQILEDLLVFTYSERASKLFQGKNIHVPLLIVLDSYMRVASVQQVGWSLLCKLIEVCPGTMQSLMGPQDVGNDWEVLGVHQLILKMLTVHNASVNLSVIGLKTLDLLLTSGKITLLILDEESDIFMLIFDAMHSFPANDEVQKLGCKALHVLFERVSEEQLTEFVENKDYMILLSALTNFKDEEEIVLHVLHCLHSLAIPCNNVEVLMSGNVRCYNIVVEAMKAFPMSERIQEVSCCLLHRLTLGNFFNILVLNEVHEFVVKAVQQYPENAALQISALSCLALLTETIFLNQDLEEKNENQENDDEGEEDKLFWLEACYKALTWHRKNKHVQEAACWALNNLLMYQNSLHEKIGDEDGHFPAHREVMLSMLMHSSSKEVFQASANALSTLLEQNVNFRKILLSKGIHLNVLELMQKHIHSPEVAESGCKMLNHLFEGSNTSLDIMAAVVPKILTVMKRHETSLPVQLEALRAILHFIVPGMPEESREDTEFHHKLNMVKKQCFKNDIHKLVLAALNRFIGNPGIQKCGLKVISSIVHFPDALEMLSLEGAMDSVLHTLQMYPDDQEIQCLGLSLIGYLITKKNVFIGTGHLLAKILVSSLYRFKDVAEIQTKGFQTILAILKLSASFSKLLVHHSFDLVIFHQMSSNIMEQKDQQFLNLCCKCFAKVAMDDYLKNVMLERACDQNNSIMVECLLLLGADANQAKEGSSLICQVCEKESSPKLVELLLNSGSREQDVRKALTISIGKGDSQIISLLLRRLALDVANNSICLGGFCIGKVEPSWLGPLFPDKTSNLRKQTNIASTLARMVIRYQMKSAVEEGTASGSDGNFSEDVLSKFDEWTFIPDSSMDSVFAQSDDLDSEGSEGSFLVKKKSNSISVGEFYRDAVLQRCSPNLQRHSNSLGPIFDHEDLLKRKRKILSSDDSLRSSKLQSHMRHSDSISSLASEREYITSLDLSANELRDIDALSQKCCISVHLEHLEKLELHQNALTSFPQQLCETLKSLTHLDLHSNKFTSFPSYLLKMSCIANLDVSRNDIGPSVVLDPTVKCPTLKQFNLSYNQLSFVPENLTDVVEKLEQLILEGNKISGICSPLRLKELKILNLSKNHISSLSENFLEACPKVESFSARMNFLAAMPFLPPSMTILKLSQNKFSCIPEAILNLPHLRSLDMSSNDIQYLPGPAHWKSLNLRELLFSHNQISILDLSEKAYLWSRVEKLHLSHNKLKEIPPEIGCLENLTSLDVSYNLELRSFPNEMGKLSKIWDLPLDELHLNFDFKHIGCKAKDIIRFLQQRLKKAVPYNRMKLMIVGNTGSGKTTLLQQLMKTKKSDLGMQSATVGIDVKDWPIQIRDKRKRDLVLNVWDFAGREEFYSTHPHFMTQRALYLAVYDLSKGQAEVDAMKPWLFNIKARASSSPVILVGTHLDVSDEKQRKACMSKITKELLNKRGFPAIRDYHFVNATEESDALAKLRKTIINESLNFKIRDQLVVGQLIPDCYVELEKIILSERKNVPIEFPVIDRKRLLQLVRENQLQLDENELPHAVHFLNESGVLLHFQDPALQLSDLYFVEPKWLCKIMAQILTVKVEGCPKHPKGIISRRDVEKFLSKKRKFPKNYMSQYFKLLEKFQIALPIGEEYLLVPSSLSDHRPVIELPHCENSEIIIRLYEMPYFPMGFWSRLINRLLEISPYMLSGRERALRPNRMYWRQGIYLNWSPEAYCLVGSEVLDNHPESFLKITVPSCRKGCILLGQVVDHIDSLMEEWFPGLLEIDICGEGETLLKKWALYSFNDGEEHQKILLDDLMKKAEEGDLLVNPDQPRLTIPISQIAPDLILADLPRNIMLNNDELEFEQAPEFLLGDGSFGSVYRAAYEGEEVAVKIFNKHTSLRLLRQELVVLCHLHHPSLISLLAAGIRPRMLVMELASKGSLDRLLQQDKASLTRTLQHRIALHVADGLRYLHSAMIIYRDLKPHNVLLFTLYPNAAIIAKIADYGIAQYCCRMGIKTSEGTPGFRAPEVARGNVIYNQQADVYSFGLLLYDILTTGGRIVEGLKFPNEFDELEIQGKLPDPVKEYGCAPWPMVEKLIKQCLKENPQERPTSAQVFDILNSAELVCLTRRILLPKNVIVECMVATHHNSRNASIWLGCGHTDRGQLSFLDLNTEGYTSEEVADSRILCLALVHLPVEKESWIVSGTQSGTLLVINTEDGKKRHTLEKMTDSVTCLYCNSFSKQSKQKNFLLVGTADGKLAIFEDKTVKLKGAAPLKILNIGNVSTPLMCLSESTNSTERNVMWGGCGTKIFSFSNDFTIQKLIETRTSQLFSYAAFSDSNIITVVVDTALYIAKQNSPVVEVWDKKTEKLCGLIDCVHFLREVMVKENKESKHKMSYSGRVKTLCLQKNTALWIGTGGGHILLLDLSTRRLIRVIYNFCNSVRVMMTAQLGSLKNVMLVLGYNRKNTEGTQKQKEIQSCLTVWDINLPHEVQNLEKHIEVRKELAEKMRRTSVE
UniProt P25286: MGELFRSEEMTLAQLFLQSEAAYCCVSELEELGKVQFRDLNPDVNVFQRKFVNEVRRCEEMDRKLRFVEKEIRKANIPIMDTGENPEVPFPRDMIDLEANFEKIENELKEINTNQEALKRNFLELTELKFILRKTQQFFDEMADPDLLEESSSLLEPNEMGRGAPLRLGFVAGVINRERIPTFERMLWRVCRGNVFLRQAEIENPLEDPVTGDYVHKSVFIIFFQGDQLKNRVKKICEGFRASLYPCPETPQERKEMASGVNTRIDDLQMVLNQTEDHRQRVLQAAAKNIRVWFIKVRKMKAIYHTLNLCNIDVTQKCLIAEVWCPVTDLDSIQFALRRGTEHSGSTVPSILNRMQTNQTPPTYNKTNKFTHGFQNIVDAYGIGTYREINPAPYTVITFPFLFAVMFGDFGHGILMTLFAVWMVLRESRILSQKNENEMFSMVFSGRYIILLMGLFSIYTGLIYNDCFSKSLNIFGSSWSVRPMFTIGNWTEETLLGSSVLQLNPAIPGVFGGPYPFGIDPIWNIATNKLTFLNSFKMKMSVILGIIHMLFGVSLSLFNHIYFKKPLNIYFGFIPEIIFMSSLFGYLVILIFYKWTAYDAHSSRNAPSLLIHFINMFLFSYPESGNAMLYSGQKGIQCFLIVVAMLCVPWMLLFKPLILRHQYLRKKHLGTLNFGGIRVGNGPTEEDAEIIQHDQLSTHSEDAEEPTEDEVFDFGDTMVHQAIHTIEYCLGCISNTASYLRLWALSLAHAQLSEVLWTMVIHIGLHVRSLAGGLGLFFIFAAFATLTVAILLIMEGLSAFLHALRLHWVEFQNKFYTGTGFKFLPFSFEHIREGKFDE

Test in all cases: co-IP; Dynabeads Protein G loaded with antibody (40 ug; YPet or vATPase a1), incubated with 150 ug lysate of DIV 14 primary cortical neuronal cultures from LRRK2 transgenic rats for 3 days at 4 C; washed in PBS +/+; blotted for vATPase a1 / YPet
Test [1] has as its target human wild-type leucine-rich repeat kinase 2 (hWT-LRRK2), YPet-tagged (human) (UniProt Q5S007).
Test [2] has as its target human LRRK2-R1441C, YPet-tagged (human) (UniProt Q5S007).
The target of test [3] is human LRRK2-G2019S, YPet-tagged (human) (UniProt Q5S007).

These are yes or no findings as the source states them, for the method shown. In cells and extracts the contact can be indirect. Some binding calls cover weakened binding; strength is not graded here.

For the substance “a1 subunit of the v-type H+ ATPase proton pump (vATPase a1) (from UniProt P25286 1-838)”, the results for the binding entry in test [1], in test [2] and in test [3] were “binds”, “no binding” and “binds”, respectively.
